At least one structure is not confirmed: it was looked up by name or label, or the drawing left a doubt.
Legend:
[1] = biological target: purified bovine intestinal phosphodiesterase (Bos taurus, UniProt P15396); test: Kinetic parameters of hydrolysis by purified phosphonate monoesterase/phosphodiesterase of calf intestinal mucosa (Table VI); type: biochemical, bovine (calf); details: 0.1 M Tris pH 8.0, 30° C., 4-nitrophenol measured continuously at 400 nm
Method: (§1) Enzymic hydrolysis of 4-nitrophenyl esters is quantitated spectrophotometrically by the appearance of the 4-nitrophenolate ion at 400 nm (ε=18,320 M^-^1 cm^-1, pK 7.15) (see Kezdy, F. J. and Bender, M. L., 1962, Biochemistry, Volume 1, page 1097), either continuously above pH 7.0 or discontinuously by raising the assay mixture to pH 9 and inactivating the enzyme by the addition of two volumes of 1 M NaHCO3, 10 mM Na3 PO4, 10 mM Na2 EDTA. Standard assay conditions are 1 mM 4-nitrophenyl phenylphosphonate, 0.1 M Tris, pH 8.0, 30° C.
^a Production of 4-nitrophenol was measured continuously at 400 nm in […]

Protein sequences, listed by entry. Tags and fused reporters are not part of them.
UniProt P15396, whole entry: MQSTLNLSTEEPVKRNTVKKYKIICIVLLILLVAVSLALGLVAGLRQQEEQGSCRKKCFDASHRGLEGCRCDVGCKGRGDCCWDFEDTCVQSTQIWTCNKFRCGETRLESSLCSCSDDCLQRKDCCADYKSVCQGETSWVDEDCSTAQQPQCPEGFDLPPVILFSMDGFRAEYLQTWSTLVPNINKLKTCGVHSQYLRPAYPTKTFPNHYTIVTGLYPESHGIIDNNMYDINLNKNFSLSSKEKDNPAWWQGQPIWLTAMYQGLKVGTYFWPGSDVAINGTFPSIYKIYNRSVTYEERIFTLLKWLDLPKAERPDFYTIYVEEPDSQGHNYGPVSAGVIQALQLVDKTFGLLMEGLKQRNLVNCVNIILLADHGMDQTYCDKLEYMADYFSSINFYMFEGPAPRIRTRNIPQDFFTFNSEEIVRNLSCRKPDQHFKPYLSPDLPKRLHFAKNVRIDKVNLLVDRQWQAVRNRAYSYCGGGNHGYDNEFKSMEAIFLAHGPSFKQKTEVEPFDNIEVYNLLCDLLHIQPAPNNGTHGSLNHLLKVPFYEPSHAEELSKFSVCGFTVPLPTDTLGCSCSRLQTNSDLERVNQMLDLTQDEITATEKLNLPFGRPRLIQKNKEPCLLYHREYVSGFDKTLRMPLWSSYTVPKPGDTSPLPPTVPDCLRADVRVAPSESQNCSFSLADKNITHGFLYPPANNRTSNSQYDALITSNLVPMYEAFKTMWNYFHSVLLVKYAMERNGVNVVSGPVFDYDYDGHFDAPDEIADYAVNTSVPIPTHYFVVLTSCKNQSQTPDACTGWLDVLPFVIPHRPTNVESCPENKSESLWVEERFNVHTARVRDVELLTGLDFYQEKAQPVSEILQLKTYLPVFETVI

[2] = test system: phosphonate monoesterase of Spinach leaf; test: Phosphonate monoesterase activity of tissue: Spinach leaf (Table V); type: biochemical; details: supernatant, standard conditions, per gram fresh or thawed weight
[3] = test system: phosphonate monoesterase of Ginko leaf; test: Phosphonate monoesterase activity of tissue: Ginko leaf (Table V); type: biochemical; details: supernatant, standard conditions, per gram fresh or thawed weight
[4] = test system: phosphonate monoesterase of Rabbit ileum mucosa; test: Phosphonate monoesterase activity of tissue: Rabbit ileum mucosa (Table V); type: biochemical; details: supernatant, standard conditions, per gram fresh or thawed weight
[5] = test system: phosphonate monoesterase of Mushroom; test: Phosphonate monoesterase activity of tissue: Mushroom (Table V); type: biochemical; details: supernatant, standard conditions, per gram fresh or thawed weight
[6] = test system: phosphonate monoesterase of Moss; test: Phosphonate monoesterase activity of tissue: Moss (Table V); type: biochemical; details: supernatant, standard conditions, per gram fresh or thawed weight
[7] = test system: phosphonate monoesterase of Frog intestine; test: Phosphonate monoesterase activity of tissue: Frog intestine (Table V); type: biochemical; details: supernatant, standard conditions, per gram fresh or thawed weight
[8] = test system: phosphonate monoesterase of Fish intestine; test: Phosphonate monoesterase activity of tissue: Fish intestine (Table V); type: biochemical; details: supernatant, standard conditions, per gram fresh or thawed weight
[9] = test system: phosphonate monoesterase of Crayfish; test: Phosphonate monoesterase activity of tissue: Crayfish (Table V); type: biochemical; details: supernatant, standard conditions, per gram fresh or thawed weight
[10] = test system: phosphonate monoesterase of Chicken intestinal mucosa; test: Phosphonate monoesterase activity of tissue: Chicken intestinal mucosa (Table V); type: biochemical; details: supernatant, standard conditions, per gram fresh or thawed weight
[11] = test system: phosphonate monoesterase of Sea Urchin; test: Phosphonate monoesterase activity of tissue: Sea Urchin (Table V); type: biochemical; details: supernatant, standard conditions, per gram fresh or thawed weight
[12] = biological target: T1, Type I phosphodiesterase, Bovine Intestine (Bos taurus, UniProt P15396); test: Activity of Type I phosphodiesterase, bovine intestine (Table VII); type: biochemical; details: 1 mM 4-nitrophenyl ester of the named compound
T1 construct: from tissue; host or cells: bovine intestine
Method: as §1
(§2) Table VII is a comparison of Type I and Type II Phosphodiesterase as follows:
(§3) Substrates were 1 mM solutions of the 4-nitrophenyl esters of the above

[13] = test system: phosphonate monoesterase of E. coli; test: Phosphonate monoesterase activity of tissue: E. coli (Table V); type: biochemical; details: supernatant, standard conditions, per gram fresh or thawed weight
[14] = test system: phosphonate monoesterase of Fern frond; test: Phosphonate monoesterase activity of tissue: Fern frond (Table V); type: biochemical; details: supernatant, standard conditions, per gram fresh or thawed weight
[15] = test system: phosphonate monoesterase of Corn leaf; test: Phosphonate monoesterase activity of tissue: Corn leaf (Table V); type: biochemical; details: supernatant, standard conditions, per gram fresh or thawed weight
[16] = test system: phosphonate monoesterase activity of human serum; test: Phosphonate monoesterase activity of human serum; type: biochemical; details: over 450 human serum samples
[17] = test system: Type I phosphodiesterase, Snake Venon; test: Activity of Type I phosphodiesterase, snake venom (Table VII); type: biochemical; details: 1 mM 4-nitrophenyl ester of the named compound
Method: as §1, §2, §3

[18] = test system: phosphonate monoesterase of Frog intestinal mucosa; test: Phosphonate monoesterase activity of tissue: Frog intestinal mucosa (Table V); type: biochemical; details: supernatant, standard conditions, per gram fresh or thawed weight
[19] = test system: Type II phosphodiesterase, Bovine spleen; test: Activity of Type II phosphodiesterase, bovine spleen (Table VII); type: biochemical; details: 1 mM 4-nitrophenyl ester of the named compound
Method: as §1, §2, §3

[20] = test system: phosphonate monoesterase of Algae; test: Phosphonate monoesterase activity of tissue: Algae (Table V); type: biochemical; details: tissue homogenate supernatant, standard conditions (1 mM substrate, 0.1 M Tris pH 8.0, 30° C.), per gram fresh or thawed tissue
[21] = test system: phosphonate monoesterase of Chicken intestine; test: Phosphonate monoesterase activity of tissue: Chicken intestine (Table V); type: biochemical; details: supernatant, standard conditions, per gram fresh or thawed weight
type I phosphodiesterase = test: Typical assay in polyacrylamide gel; type: biochemical; details: 5-10 mM 2-naphthyl phenylphosphonate, 0.1% Fast Garnet GBC Salt, 10-30 min

O=[N+]([O-])c1ccc(OP(=O)(O)c2ccccc2)cc1 [4-nitrophenyl phenylphosphonate]
Vmax [1]: 744 μmoles min^-^1 mg^-^1
Activity [2]: 1.4 n moles min^-^1 g^-^1
Activity [3]: 0.4 n moles min^-^1 g^-^1
Activity [4]: 800 n moles min^-^1 g^-^1
Activity [5]: 1.8 n moles min^-^1 g^-^1
Activity [6]: 0.5 n moles min^-^1 g^-^1
Activity [7]: 1.7 n moles min^-^1 g^-^1
Activity [8]: 2.8 n moles min^-^1 g^-^1
Activity [9]: 2.0 n moles min^-^1 g^-^1
Activity [10]: 1770 n moles min^-^1 g^-^1
Activity [11]: 0.3 n moles min^-^1 g^-^1
Activity [12]: 38,900 nmoles min^-^1 mg^-^1
Activity [13]: 33.0 n moles min^-^1 g^-^1
Activity [14]: 0.9 n moles min^-^1 g^-^1
Activity [15]: 1.0 n moles min^-^1 g^-^1
presence of activity in samples [16]: All samples contain this activity
samples with level of activity between 8 and 27 nmoles min^-^1 ml^^-1 [16]: approximately 97%
Activity [17]: 1230 nmoles min^-^1 mg^-^1
Activity [18]: 1020 n moles min^-^1 g^-^1
Activity [19]: 1.0 nmoles min^-^1 mg^-^1
Activity [20]: 2.0 n moles min^-^1 g^-^1
Activity [21]: 3.3 n moles min^-^1 g^-^1

O=P(O)(Oc1ccc2ccccc2c1)c1ccccc1 [2-naphthyl phenylphosphonate]
appearance of azo dye band in gel (type I phosphodiesterase): a red band of the azo dye formed by the freed 2-naphthol and the diazonium salt appears at the site of type I phosphodiesterase activity

Source: patent US4041111A, “Phosphonate monoesters and method of preparation” (Purdue Research Foundation, priority 1975, dated 1977)
